Results from PubChem BioAssay AID2549 (National Center for Advancing Translational Sciences (NCATS), 2010).
Out of some 240,000 compounds screened, about 1,300 (0.54%) were called active. The inconclusive results got no clear call from the source; some entries with a clear call stand among them for comparison. Calls come from the whole dose curve; as a rule, active = well fitted inhibition curve with a large enough effect; inconclusive = small, poorly fitted or top-dose-only effect; inactive = flat fitted curve, though single readings scatter. A potency beside an inconclusive call is a rough fit, not a confirmed value.

Protein sequences, listed by entry. Tags and fused reporters are not part of them. Lines headed by an entry give the natural chain unless they say otherwise; changes in a name come on top.
UniProt P46063: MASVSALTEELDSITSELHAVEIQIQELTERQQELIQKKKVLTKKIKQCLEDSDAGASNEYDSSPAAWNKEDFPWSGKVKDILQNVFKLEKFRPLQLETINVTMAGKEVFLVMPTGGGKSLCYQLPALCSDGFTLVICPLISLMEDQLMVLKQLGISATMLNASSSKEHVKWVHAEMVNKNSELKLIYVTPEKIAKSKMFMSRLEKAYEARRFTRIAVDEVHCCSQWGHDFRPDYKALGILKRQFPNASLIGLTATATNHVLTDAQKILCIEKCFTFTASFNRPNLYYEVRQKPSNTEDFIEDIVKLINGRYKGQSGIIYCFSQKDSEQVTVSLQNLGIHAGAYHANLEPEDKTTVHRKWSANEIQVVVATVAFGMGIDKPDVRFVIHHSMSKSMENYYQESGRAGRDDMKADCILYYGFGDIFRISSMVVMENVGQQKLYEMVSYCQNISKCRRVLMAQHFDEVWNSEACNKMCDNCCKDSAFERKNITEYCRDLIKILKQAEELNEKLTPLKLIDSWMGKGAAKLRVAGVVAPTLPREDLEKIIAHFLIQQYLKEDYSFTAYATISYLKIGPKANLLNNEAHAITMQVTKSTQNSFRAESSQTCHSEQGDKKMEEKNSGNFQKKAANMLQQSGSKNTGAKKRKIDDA

Biological target: ATP-dependent DNA helicase Q1 (Homo sapiens) (UniProt P46063)
Test: qHTS Assay for Inhibitors of RecQ-Like Dna Helicase 1 (RECQ1); note: nearly all actives have a fitted effect of over 30% in size;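 for activity, negative = inhibition: plate controls were vehicle for no effect and no enzyme for full effect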
Conditions: RECQ1 DNA unwinding, red fluorescence kinetic read; activity, negative = inhibition: at 57.3 µM (top of the series); series mostly up to 57.3 µM
In short: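 RECQ1T1 50 nM; forked duplex (20 bp + 30-nt ss tails) 200 nM, ATP 2 mM final; pH 8.0, 2 mM MgCl2, 2.5 ug/ml poly(dI-dC); 15 min compound preincubation; discontinuous kinetic read over 2 h at RT.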
Potency is the fitted concentration of half-maximal effect.

SMILES	Potency	activity, negative = inhibition
COC(=O)c1c(NC(=O)Cc2cccs2)sc2c1CCCC2	active: 28.2 µM	
COc1ccc(CNC(=O)COC(=O)Cc2ccc(Cl)cc2Cl)cc1		inactive: -16.3%
O=C1OC2(c3cc(Br)c(O)c(Br)c3Oc3c2cc(Br)c(O)c3Br)c2c(Cl)c(Cl)c(Cl)c(Cl)c21	active: 5.01 µM	
COc1cccc2cc(C(C)=O)oc12	inconclusive: 7.08 µM [inhibitor, single point]	
Cc1ccc(-c2nc(SCC(=O)Nc3ccccc3OC(F)F)c3c(C)c(C(=O)O)sc3n2)cc1	active: 25.1 µM	
CNc1nc(-c2ccc3c(c2)CCN3S(=O)(=O)c2ccccc2)c(C)s1	inconclusive: 35.5 µM [inhibitor, single point]	
COc1ccc(N=Nc2ccc(N)nc2N)cc1		inactive: 0.876%
CN(C)/C=C1\NC(=S)N(c2ccccc2)C1=O	inconclusive: 0.158 µM [inhibitor, partial curve, poor fit]	
C[C@H](NC(=O)c1nc[nH]c1C(=O)NC(c1ccccc1)c1ccccc1)C(=O)OC(C)(C)C	inconclusive: 11.2 µM [inhibitor, partial curve]	
CCOc1ccc(Nc2nc(Cc3nnc(SCC(=O)O)o3)cs2)cc1	inconclusive: 39.8 µM [inhibitor, single point]	
O=C(N/N=C/c1ccc(O)c(O)c1)c1ccc(CSc2cccc3cccnc23)cc1	active: 11.2 µM	
O=C(N/N=C/c1cc2c(cc1Br)OCO2)c1c[nH]c2ccccc12	inconclusive: 0.126 µM [inhibitor, full curve]	
CC1Cn2c(COc3ccccc3)nnc2S1 (stereo not given)		inactive: -7.92%
CC(=O)N1c2ccc3ccccc3c2C2C=CCC2C1c1ccc(Br)cc1 (stereo not given)	inconclusive: 3.16 µM [inhibitor, partial curve]	
CCN(CC)C(=O)CSc1nc(O)cc(=O)n1CC	inconclusive: 6.31 µM [inhibitor, single point]	
O=c1c(O)c(-c2ccc(O)cc2)oc2ccc(O)cc12		inactive: -3.28%
CN(C)/[N+]([O-])=N/Oc1cc(ON=[N+]([O-])N2CCN(c3ncccn3)CC2)c([N+](=O)[O-])cc1[N+](=O)[O-]		inactive: -5.54%
N#C/C(=C\c1ccco1)C(=O)Nn1cnnc1	inconclusive: 8.91 µM [inhibitor, partial curve]	
C/C(=N/NC(=O)c1cc2ccccc2cc1O)C1C(=O)c2ccccc2C1=O	inconclusive: 39.8 µM [inhibitor, single point]	
CCOC(=O)NC1(NCc2ccccc2)Oc2ccccc2O1	inconclusive: 11.2 µM [inhibitor, partial curve]	
C/C=C/C=N/Nc1nc(-c2ccc([N+](=O)[O-])cc2)cs1	inconclusive: 1.41 µM [inhibitor, full curve]	
CCN(CC)C(=O)CCS(=O)(=O)c1cccc2nonc12	inconclusive: 3.55 µM [inhibitor, partial curve]	

SMILES	Potency	activity, negative = inhibition
CNc1ccc(Br)cc(C(=O)/C=C/c2ccc(OC)cc2)c1=O	inconclusive: 22.4 µM [inhibitor, single point]	
[O][C@H]1[C@@H](O)[C@@H](CO)O[C@@H](O[C@@H]2[C@@H]3OC[C@H]2O[C@H](O[C@@H]2[C@@H](O)[C@H](C[C@@H]4[C@@H]5OC[C@H]4O[CH][C@@H]5O)O[C@H](CO)[C@@H]2OS(=O)(=O)O)[C@@H]3OS(=O)(=O)O)[C@@H]1O	active: 3.98 µM	
COc1ccc(N(CC(O)Cn2c3ccccc3c3ccccc32)S(=O)(=O)c2ccccc2)cc1 (stereo not given)	inconclusive: 25.1 µM [inhibitor, partial curve]	
C=CCNC(=O)COC(=O)c1cc(S(=O)(=O)N2CCOCC2)ccc1N1CCCCC1	inconclusive: 0.158 µM [inhibitor, full curve, poor fit]	
N#C/C(=C\c1ccc(O)c(O)c1)C(=O)c1ccc(O)c(O)c1	active: 1.58 µM	
c1coc(-c2nc3c4c5c(sc4ncn3n2)CCCC5)c1		inactive: 3.85%
Cc1ccc(C2=NC(=O)/C(=C/c3cc(O)c(O)c(Br)c3)S2)cc1	active: 3.55 µM	
Nc1ccc(-c2nc3ccc(N)cc3[nH]2)cc1	active: 35.5 µM	
O=C1/C(=C/c2ccc(O)c(O)c2)Oc2ccccc21	inconclusive: 25.1 µM [inhibitor, single point]	
Cc1ccc2nc(NC(=O)c3ccc(N4C(=O)CCC4=O)cc3)sc2c1		inactive: -16.1%
C[n+]1cc(C(=O)N2CCCCC2)ccc1/C=C/c1c[nH]c2ccccc12	inconclusive: 35.5 µM [inhibitor, single point]	
CS(=O)(=O)Nc1cccc(-c2nc(N3CCOCC3)c3ccccc3n2)c1	inconclusive: 39.8 µM [inhibitor, single point]	
CNC(=O)CSCCn1c(SCC(=O)NC)nc2ccccc2c1=O	inconclusive: 4.47 µM [inhibitor, partial curve, poor fit]	
COc1ccc(OC)c(C2=C[N+](=O)C(C)(C)C(C)(C)N2[O-])c1	inconclusive: 0.0282 µM [inhibitor, full curve, poor fit]	
Cc1ccc(-c2nn(-c3cccc(F)c3)cc2CN2CCN(c3ccccn3)CC2)o1	inconclusive: 25.1 µM [inhibitor, partial curve, poor fit]	
O=C(CSc1nnnn1C1CCCC1)c1ccc2c(c1)OCCO2	inconclusive: 3.98 µM [inhibitor, partial curve]	
N#Cc1c2n(c3c(=O)n(Cc4ccc(Cl)cc4)cnc13)CCCCC2	inconclusive: 4.47 µM [inhibitor, single point]	
Cc1ccc(S(=O)(=O)N(CC(=O)Nc2cccc(N(C)S(C)(=O)=O)c2)c2ccc(Cl)c(Cl)c2)cc1	active: 7.08 µM	
Cc1ccc(NC(=O)c2c(Cl)n(C)c3ccccc23)cc1	inconclusive: 39.8 µM [inhibitor, single point]	
O=C(c1ccccc1)c1ccc2nc(-c3ccco3)c(-c3ccco3)nc2c1	inconclusive: 39.8 µM [inhibitor, single point]	
CN(C)S(=O)(=O)c1cc(NC(=O)COC(=O)Cc2ccc(Cl)cc2Cl)ccc1Cl	inconclusive: 1.12 µM [inhibitor, full curve]	
CCOc1cccc(OCCOc2ccccc2[N+](=O)[O-])c1	inconclusive: 39.8 µM [inhibitor, single point]	

Quoted from the listing:
Potency, O=C1/C(=C/c2ccc(O)c(O)c2)Oc2ccccc21 reads inconclusive: 25.1 µM [inhibitor, single point]
Potency, N#C/C(=C\c1ccco1)C(=O)Nn1cnnc1 reads inconclusive: 8.91 µM [inhibitor, partial curve]
activity, negative = inhibition, CC1Cn2c(COc3ccccc3)nnc2S1 (stereo not given) reads inactive: -7.92%
activity, negative = inhibition, O=c1c(O)c(-c2ccc(O)cc2)oc2ccc(O)cc12 reads inactive: -3.28%
Potency, C[n+]1cc(C(=O)N2CCCCC2)ccc1/C=C/c1c[nH]c2ccccc12 reads inconclusive: 35.5 µM [inhibitor, single point]
Potency, O=C(c1ccccc1)c1ccc2nc(-c3ccco3)c(-c3ccco3)nc2c1 reads inconclusive: 39.8 µM [inhibitor, single point]

Following part

SMILES	Potency	activity, negative = inhibition
CCOC(=O)C1CCN(CC(O)COc2ccc(C(C)(C)CC)cc2)CC1 (stereo not given)	inconclusive: 0.398 µM [inhibitor, partial curve, poor fit]	
CSc1nc(N)nc(SCC(=O)C23CC4CC(CC(C4)C2)C3)c1C#N		inactive: -7.06%
COc1ccc(Sc2ccc(/C=C3\C(=O)NN(c4ccccc4)C3=O)o2)cc1	active: 10 µM	
O=C(NCC1CCCO1)c1ccc2c(=O)n(Cc3cccc(Br)c3)c(=S)[nH]c2c1 (stereo not given)	inconclusive: 8.91 µM [inhibitor, single point]	
O=C(NCCN1CCCCCC1)C1CCC(CNS(=O)(=O)c2cccc3cccnc23)CC1 (stereo not given)	inconclusive: 15.8 µM [inhibitor, partial curve]	
CCn1c(CSc2nnc(-c3ccncc3)n2C)nc2cc(C(=O)O)ccc21	active: 14.1 µM	
CC(C)C(=O)NC(=S)/C=C1/N(C)c2ccccc2C1(C)C	inconclusive: 0.0282 µM [inhibitor, full curve, poor fit]	
C[C@@H]1[C@H](C)CC[C@@]2(C(=O)O)CC[C@]3(C)C(=CC[C@H]4[C@@]5(C)CC[C@@H](O)C(C)(C)[C@@H]5CC[C@@]43C)[C@@H]12		inactive: 11.7% [at 25.9 µM]
COc1cc(/C=C(\C#N)c2nc3ccccc3s2)cc([N+](=O)[O-])c1O	inconclusive: 39.8 µM [inhibitor, single point]	
CN1CCc2cccc3c2[C@H]1Cc1ccc(O)c(O)c1-3	inconclusive: 31.6 µM [inhibitor, single point]	
COc1ccc(C2=C(C=C(C#N)C#N)C(c3ccccc3C)c3ccccc3O2)cc1OC (stereo not given)	inconclusive: 39.8 µM [inhibitor, single point]	
CCOc1ccc(S(=O)(=O)NCCC2=CCCCC2)c2ccccc12	inconclusive: 22.4 µM [inhibitor, partial curve]	
O=C1NC(=S)S/C1=C\c1ccc(SCc2ccccc2)o1	inconclusive: 31.6 µM [inhibitor, single point]	
C=CCn1c(C)cc(C(=O)CSc2nc3ccccc3c(=O)[nH]2)c1C	inconclusive: 14.1 µM [inhibitor, single point]	
Nc1cc(=O)[nH]c(SCC(=O)N2N=C(c3ccc(Cl)cc3)CC2c2ccco2)n1 (stereo not given)	inconclusive: 35.5 µM [inhibitor, single point]	
CCOc1ccc(NC(=S)NC(=O)c2c(Cl)c(C)nn2C)c([N+](=O)[O-])c1	inconclusive: 3.55 µM [inhibitor, full curve, poor fit]	
O=C(NC1CCC(O)CC1)c1cc(-c2ccco2)nc2ccccc12 (stereo not given)	active: 22.4 µM	
N#C/C(=C\c1ccc(O)c(O)c1)C(N)=O	inactive	
O=C(O)c1c2c(nc3ccc(S(=O)(=O)N4CCC(C(=O)NC5CCCCCC5)CC4)cc13)CCCC2	inconclusive: 39.8 µM [inhibitor, single point]	
Cc1cccc(NC(=S)N/N=C/c2cccn2Cc2ccc(F)cc2)c1	inconclusive: 8.91 µM [inhibitor, partial curve, poor fit]	
COCCN(C(=O)CSc1nnc(-c2ccccc2F)n1C)c1c(N)n(Cc2ccccc2)c(=O)[nH]c1=O	inconclusive: 0.199 µM [inhibitor, full curve]	
